Data from PubChem BioAssay AID485314 (National Center for Advancing Translational Sciences (NCATS), 2010).
Among all 340,000 compounds or so, about 4,500 (1.3%) were called active. Inconclusive means that the source gave no clear call. Such entries were picked first, then a sample of the others. Calls come from the whole dose curve; as a rule, active = well fitted inhibition curve with a large enough effect; inconclusive = small, poorly fitted or top-dose-only effect, or another doubt; inactive = no such curve, though single readings can be large or run the other way. A potency beside an inconclusive call is a rough fit, not a confirmed value.

Biological target: DNA polymerase beta (Homo sapiens) (UniProt P06746)
Assay: qHTS Assay for Inhibitors of DNA Polymerase Beta
Conditions: Pol beta primer extension/strand displacement, fluorescence kinetic; activity change, negative = inhibition: at 114 µM (top of the series)
Method in brief: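 10 nM enzyme + cpd, 15 min RT; start with substrate 50 nM final; read 0 min and after 10 min RT. Corrected, normalized data; 4-parameter Hill curve fit.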
% is set by controls: 0 for no effect and ±100 for the full control effect; potency is the fitted concentration of half-maximal effect.

| SMILES | Potency | activity change, negative = inhibition |
| --- | --- | --- |
| CCOc1cc(N2CCOCC2)c(OCC)cc1NC(=O)[C@H](C)NC(=O)c1ccco1 | inconclusive: 25.1 µM [inhibitor, single point] | – |
| O=c1c(-c2ccc([N+](=O)[O-])cc2)coc2c(O)c(O)ccc12 | – | inconclusive: -122% [inhibitor] |
| Cc1cc2oc(C(=O)NCCc3ccc(S(N)(=O)=O)cc3)cc(=O)c2cc1C | inactive | – |
| COc1cc2[nH]c(=S)n(NC(=O)CC(C)C)c(=O)c2cc1OC | inconclusive: 1.58 µM [inhibitor, full curve] | – |
| COc1ccc(N(/N=C2\Sc3ccccc3C2=O)C(C)=O)cc1 | inactive | – |
| O=C(Nc1ccc(O)cc1C(=O)O)c1ccc2c(c1)C(=O)N(Cc1ccco1)C2=O | inconclusive: 17.8 µM [inhibitor, full curve] | – |
| CC(=O)Nc1ccc(Nc2nc(-c3sc(NC(C)=O)nc3C)cs2)cc1 | inconclusive: 28.2 µM [inhibitor, full curve] | – |
| COc1cc(C(=O)NCc2nnnn2-c2ccc(C)c(C)c2)cc(OC)c1OC | inactive | – |
| CCC(=O)N1CCc2cc(S(=O)(=O)NC(Cc3ccccc3)C(=O)NCc3ccc(C)cc3)ccc21 (stereo unspecified) | inconclusive: 22.4 µM [inhibitor, full curve] | – |
| CCC(OC(=O)C1=Cc2ccccc2OC1)C(=O)NCc1ccco1 (stereo unspecified) | inactive | – |
| O=C(Nc1ccnn1C1CCN(Cc2ccccc2)CC1)C1CCOC1 (stereo unspecified) | inconclusive: 0.708 µM [inhibitor, full curve, poor fit] | – |
| CCOC(=O)C1CCCN(C(=O)Cn2ncc3c4ccccc4n(Cc4ccc(F)cc4)c3c2=O)C1 (stereo unspecified) | inactive | – |
| CCOC1OC(=O)C(Cl)=C1Nc1cc(C)ccc1C (stereo unspecified) | inconclusive: 100 µM [inhibitor, single point] | – |
| O=C(COc1ccccc1)Nc1sc2c(c1C(=O)Nc1ccccc1)CCCCC2 | active: 17.8 µM | – |
| O=C(Cn1nnc(-c2ccc(CN3CCOCC3)cc2)n1)NC1CCCCC1 | inconclusive: 22.4 µM [inhibitor, single point] | – |
| O=C(Nc1ccc(Cl)cc1)c1cc(Br)ccc1OCC(=O)N1CCOCC1 | inconclusive: 89.1 µM [inhibitor, single point] | – |
| COc1cc2c(cc1OC)C(COc1cc(C)cc(C)c1)N(C(=O)c1ccc(S(=O)(=O)N3CCCC3)cc1)CC2 (stereo unspecified) | inactive | – |
| Cc1ccccc1NC(=O)C1CCN(S(=O)(=O)c2ccccc2)CC1 | inactive | – |
| Cn1c(=O)oc2cc(S(=O)(=O)N3CCCCC3)ccc21 | inconclusive: 89.1 µM [inhibitor, single point] | – |
| O=C(CSc1n[nH]c(-c2cccnc2)n1)Nc1ccc([N+](=O)[O-])cc1Br | inconclusive: 100 µM [inhibitor, single point] | – |
| COc1ccc(C2C=C(c3ccccc3)Nc3nc(NS(=O)(=O)c4ccc(C)cc4)nn32)cc1 (stereo unspecified) | inactive | – |
| COC(=O)C1(Cc2ccc(O)c(CC3OC3(C)C)c2)OC(=O)C(O)=C1c1ccc(O)cc1 (stereo unspecified) | inconclusive: 31.6 µM [inhibitor, full curve, poor fit] | – |
| Cc1ccc2c(C)c(C(=O)N3CCC(c4nc5ccccc5s4)CC3)oc2c1C | inactive | – |
| Cc1cc(C)c(C)c(S(=O)(=O)N[C@@H](C)C(=O)OCc2cc(=O)n3cc(Br)ccc3n2)c1C | active: 8.91 µM | – |

| SMILES | Potency | activity change, negative = inhibition |
| --- | --- | --- |
| Cc1ccc(C)c(OCC(=O)Nn2c(C)nc3ccccc3c2=O)c1 | inactive | – |
| COc1ccc(NC(=O)CN(C)C(=O)c2cc(-c3ccncc3)nc3ccccc23)cc1 | inconclusive: 2 µM [inhibitor, partial curve, poor fit] | – |
| O=C(CCN1CCN(Cc2ccccc2)CC1)NNC(=O)Nc1cccc(C(F)(F)F)c1 | inactive | – |
| Cc1noc(NS(=O)(=O)c2ccc(NC(=O)c3ccoc3C)cc2)c1C | inconclusive: 25.1 µM [inhibitor, full curve] | – |
| O=C(CSCc1ccc(Cl)cc1)Nc1cccc(C(=O)O)c1 | inconclusive: 100 µM [inhibitor, single point] | – |
| O=C(Nc1nnc(C2CCCO2)s1)c1ccc(Br)cc1 (stereo unspecified) | inconclusive: 0.126 µM [inhibitor, full curve, poor fit] | – |
| CNC(=O)c1c(NC(=O)c2ccco2)sc2c1CCC2 | inconclusive: 39.8 µM [inhibitor, single point] | – |
| Cc1ccc(C(O)(C(=O)NNc2ccccn2)c2ccc(C)cc2)cc1 | inactive | – |
| CNC(=O)c1c[nH]c2ccc(S(=O)(=O)Nc3ccccc3F)cc2c1=O | inconclusive: 63.1 µM [inhibitor, single point] | – |
| COc1cc2nc(C(C)(C)C)oc(=O)c2cc1OC | inconclusive: 4.47 µM [inhibitor, full curve, poor fit] | – |
| O=c1c2ccccc2sc2ccc(Cl)cc12 | inactive | – |
| CCOC(=O)C1=C(C)NC(C)=C(C(=O)OCC)C1c1ccco1 | inactive | – |
| Cc1sc2ncn(CC(=O)N3CCN(c4ccccc4F)CC3)c(=O)c2c1S(=O)(=O)N1CCN(c2ncccn2)CC1 | inconclusive: 56.2 µM [inhibitor, partial curve, poor fit] | – |
| Cc1ccccc1-n1c(SCC(=O)c2cc(C)n(C)c2C)nnc1-c1ccncc1 | inconclusive: 0.794 µM [inhibitor, full curve] | – |
| Cc1ccccc1-n1cnc2cc(NCc3cccs3)ccc21 | inconclusive: 35.5 µM [inhibitor, single point] | – |
| CC(C)(C)OC(=O)COc1cc(OCC(=O)OC(C)(C)C)c2c(=O)cc(-c3ccccc3)oc2c1 | inconclusive: 44.7 µM [inhibitor, partial curve, poor fit] | – |
| CCC(=O)Nc1cccc(-c2ccc(N3CCN(C)CC3)nn2)c1 | – | inconclusive: -34.8% [inhibitor] |
| CCC(=O)N1CCc2cc(Br)cc(S(=O)(=O)CCC(=O)NCCc3ccc(C)cc3)c21 | inactive | – |
| O=C(Nc1cccc(Br)c1)c1ccn[nH]1 | inactive | – |
| CCN1CCN(Cc2ccc(NC(=O)c3cc(NC(=O)c4cc(C)on4)cc(OC)c3)cc2C(F)(F)F)CC1 | inactive | – |
| COc1ccc(N(CC(=O)Nc2ccc(F)c(Cl)c2)S(=O)(=O)c2c(C)noc2C)cc1 | inconclusive: 0.562 µM [inhibitor, full curve, poor fit] | – |
| O=C(NC1CC1)C1=C[C@H](c2c[nH]c3ccccc23)C[C@H](OCc2ccc(CO)cc2)O1 | – | inconclusive: -35.1% [inhibitor] |
| CCSc1ncnc2c1sc1nc(-c3ccco3)c3c(c12)CC(C)(C)OC3 | inconclusive: 15.8 µM [inhibitor, full curve, poor fit] | – |
| CCc1ccccc1OCCSc1nc(-c2cccs2)nc2cc(=O)[nH]n12 | inconclusive: 89.1 µM [inhibitor, single point] | – |

| SMILES | Potency | activity change, negative = inhibition |
| --- | --- | --- |
| COc1cc2[nH]c(=S)nc(NCCc3ccc(S(N)(=O)=O)cc3)c2cc1OC | inconclusive: 89.1 µM [inhibitor, single point] | – |
| CC(=O)Nc1ccc(Nc2c3ccccc3nc3ccccc23)cc1 | active: 17.8 µM | – |
| CN1C(C(=O)Nc2ccccn2)=C(O)c2sc(Cl)cc2S1(=O)=O | inconclusive: 89.1 µM [inhibitor, single point] | – |
| O=[N+]([O-])c1ccc(NCCc2ccccc2)c(Br)c1 | active: 79.4 µM | – |
| Cc1nc(SCC(=O)Nc2ccc(OCc3ccccc3)cc2)n[nH]1 | inactive | – |
| Cc1ccccc1CNC(=O)C1CCCN(c2nnc(C)c3c(C)n(-c4ccccc4)nc23)C1 (stereo unspecified) | – | inconclusive: -32% [inhibitor] |
| O=c1c2ccccc2nc2n1CCCN2 | inconclusive: 100 µM [inhibitor, single point] | – |
| OCCCN=c1cc(-c2ccccc2)oc2ccc(Cl)cc12 | active: 44.7 µM | – |
| Cc1c(NC(=O)/C(=C/c2cccs2)c2cccs2)c(=O)n(-c2ccccc2)n1C | inconclusive: 14.1 µM [inhibitor, partial curve] | – |
| CCOc1ccc(N=Nc2c(=O)[nH]n3c(=O)c4c([nH]c23)CCCC4)cc1 | active: 50.1 µM | – |
| Cc1ccc(-c2n[nH]c3c2C(c2ccccc2Cl)N(c2ccc(C(=O)O)cc2)C3=O)cc1 (stereo unspecified) | inactive | – |
| O=C1C2C3C=CC(C3)C2C(=O)N1CNc1ccc(O)cc1 (stereo unspecified) | active: 39.8 µM | – |
| Cc1csc2nc(-c3ccc(NS(=O)(=O)c4cccc(F)c4)cc3)cn12 | inconclusive: 0.562 µM [inhibitor, full curve, poor fit] | – |
| O=C(COc1ccc(Cl)cc1Cl)Nc1ccccc1NS(=O)(=O)c1cccs1 | inconclusive: 89.1 µM [inhibitor, single point] | – |
| CCn1c(SCC(=O)N2CC(C)OC(C)C2)nc2c([nH]c3ccccc32)c1=O (stereo unspecified) | inactive | – |
| CCc1nc2scc(-c3cccs3)c2c(=O)o1 | active: 31.6 µM | – |
| Cc1ccc(C(=O)c2cn(CC(=O)NCc3ccccc3)c3nc(C)ccc3c2=O)cc1 | inactive | – |
| Cc1c(-c2ccc(Cl)cc2)oc(=O)c2c(N)n(-c3ccccc3)nc12 | active: 12.6 µM | – |
| CCN(CC)CCC(c1ccc(N(C)C)cc1)c1c(OC)cc(OC)c2ccc(=O)oc12 (stereo unspecified) | inconclusive: 89.1 µM [inhibitor, single point] | – |
| Cc1ccc(-c2csc3nc4cc(C(N)=O)ccc4c(=O)n23)cc1 | – | inconclusive: -63.8% [inhibitor] |
| Cc1ccc(NC(=O)CSc2nc(N)c3c4c(sc3n2)CSC(C)(C)C4)cc1 | inconclusive: 89.1 µM [inhibitor, single point] | – |
| NNc1cc([N+](=O)[O-])cc2c1C(=O)N(Cc1ccccc1)S2=O (stereo unspecified) | inconclusive: 25.1 µM [inhibitor, full curve, poor fit] | – |

Some values from the results shown.
Potency, O=C1C2C3C=CC(C3)C2C(=O)N1CNc1ccc(O)cc1 (stereo unspecified) is entered as active: 39.8 µM
Potency, CCn1c(SCC(=O)N2CC(C)OC(C)C2)nc2c([nH]c3ccccc32)c1=O (stereo unspecified) is entered as inactive
Potency, O=C(COc1ccc(Cl)cc1Cl)Nc1ccccc1NS(=O)(=O)c1cccs1 is entered as inconclusive: 89.1 µM [inhibitor, single point]
Potency, Cc1nc(SCC(=O)Nc2ccc(OCc3ccccc3)cc2)n[nH]1 is entered as inactive
